The text below walks through data of PMC1334198.

The assay deals with FCH domain of RhoGAP4 (human). As to the kind of experiment: pull-down; GST-tagged RhoGAP4 domain incubated with HL-60 lysate, eluted with glutathione, blotted for Hem-1; only the target purified.

Results are given in words; binding and its absence hold for the method and conditions named. Binding seen in cells or lysates may run through a third protein.

B1: hematopoietic protein 1 (Hem-1) (protein, UniProt P55160 1-1127)
chain: MSLTSAYQHKLAEKLTILNDRGQGVLIRMYNIKKTCSDPKSKPPFLLEKSMEPSLKYINKKFPNIDVRNSTQHLGPVHREKAEIIRFLTNYYQSFVDVMEFRDHVYELLNTIDACQCHFDINLNFDFTRSYLDLIVTYTSVILLLSRIEDRRILIGMYNCAHEMLHGHGDPSFARLGQMVLEYDHPLKKLTEEFGPHTKAVSGALLSLHFLFVRRNQGAEQWRSAQLLSLISNPPAMINPANSDTMACEYLSVEVMERWIIIGFLLCHGCLNSNSQCQKLWKLCLQGSLYITLIREDVLQVHKVTEDLFSSLKGYGKRVADIKESKEHVIANSGQFHCQRRQFLRMAVKELETVLADEPGLLGPKALFAFMALSFIRDEVTWLVRHTENVTKTKTPEDYADSSIAELLFLLEGIRSLVRRHIKVIQQYHLQYLARFDALVLSDIIQNLSVCPEEESIIMSSFVSILSSLNLKQVDNGEKFEFSGLRLDWFRLQAYTSVAKAPLHLHENPDLAKVMNLIVFHSRMLDSVEKLLVETSDLSTFCFHLRIFEKMFAMTLEESAMLRYAIAFPLICAHFVHCTHEMCPEEYPHLKNHGLHHCNSFLEELAKQTSNCVLEICAEQRNLSEQLLPKHCATTISKAKNKKTRKQRQTPRKGEPERDKPGAESHRKNRSIVTNMDKLHLNLTELALTMNHVYSFSVFEHTIFPSEYLSSHLEARLNRAIVWLAGYNATTQEIVRPSELLAGVKAYIGFIQSLAQFLGADASRVIRNALLQQTQPLDSCGEQTITTLYTNWYLESLLRQASSGTIILSPAMQAFVSLPREGEQNFSAEEFSDISEMRALAELLGPYGMKFLSENLMWHVTSQIVELKKLVVENMDILVQIRSNFSKPDLMASLLPQLTGAENVLKRMTIIGVILSFRAMAQEGLREVFSSHCPFLMGPIECLKEFVTPDTDIKVTLSIFELASAAGVGCDIDPALVAAIANLKADTSSPEEEYKVACLLLIFLAVSLPLLATDPSSFYSIEKDGYNNNIHCLTKAIIQVSAALFTLYNKNIETHLKEFLVVASVSLLQLGQETDKLKTRNRESISLLMRLVVEESSFLTLDMLESCFPYVLLRNAYREVSRAFHLN
With B1, the binding entry was “no binding”.
